Measured values taken from paper PMC8501799, “Constitutive signal bias mediated by the human GHRHR splice variant 1” (Proceedings of the National Academy of Sciences of the …, 2021).
Numbering of substitutions follows the chain as printed. Results are given in words; binding and its absence hold for the method and conditions named. In cells and extracts the contact can be indirect. Some binding calls cover weakened binding; strength is not graded here.

Sequences of proteins named here, by UniProt entry; tags and fusion partners are left off.
UniProt P49407: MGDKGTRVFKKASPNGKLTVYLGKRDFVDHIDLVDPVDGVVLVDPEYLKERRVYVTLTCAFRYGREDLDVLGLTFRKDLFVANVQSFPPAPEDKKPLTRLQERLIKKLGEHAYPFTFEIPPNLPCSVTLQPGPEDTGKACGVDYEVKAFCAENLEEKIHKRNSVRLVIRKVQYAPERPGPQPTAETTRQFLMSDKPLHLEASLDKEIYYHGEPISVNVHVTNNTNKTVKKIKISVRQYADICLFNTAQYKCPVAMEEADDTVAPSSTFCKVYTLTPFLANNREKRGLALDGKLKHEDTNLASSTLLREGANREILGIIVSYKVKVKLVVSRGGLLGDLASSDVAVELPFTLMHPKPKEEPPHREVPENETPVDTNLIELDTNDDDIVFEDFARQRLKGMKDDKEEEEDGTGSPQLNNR

Key:
Experiment in all cases: FRET or BRET; β-arrestin 1/2 recruitment assay in live HEK293T cells co-transfected with receptor-Rluc8 and β-arrestin 1/2-Venus (1:9 mass ratio); coelenterazine h; started with 250 μM GHRH; AUC of the BRET time course (535 nm/470 nm) normalised to WT GHRHR = 100%
GHRHR N296A (human) = molecular target: T1, GHRHR N296A (human) (UniProt Q02643)
T1 sequence: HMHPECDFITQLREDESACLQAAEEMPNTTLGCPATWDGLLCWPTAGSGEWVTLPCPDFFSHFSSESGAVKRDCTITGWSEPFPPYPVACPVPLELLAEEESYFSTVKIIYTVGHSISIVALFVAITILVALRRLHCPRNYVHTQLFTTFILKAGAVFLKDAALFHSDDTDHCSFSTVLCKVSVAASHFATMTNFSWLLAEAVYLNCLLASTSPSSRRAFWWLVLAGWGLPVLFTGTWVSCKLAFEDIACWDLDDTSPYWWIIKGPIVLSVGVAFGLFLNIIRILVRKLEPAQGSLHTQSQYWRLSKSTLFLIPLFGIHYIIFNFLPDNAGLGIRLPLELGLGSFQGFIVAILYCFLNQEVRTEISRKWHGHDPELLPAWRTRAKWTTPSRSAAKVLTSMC

[1] = molecular target: T2, GHRHR with all four ECD residues L34, L62, F82 and F85 substituted with alanine (human) (UniProt Q02643)
T2 sequence: T1 sequence with L12A, L40A, F60A, F63A, A274N

GHRHR E223A (human) = molecular target: T3, GHRHR E223A (human) (UniProt Q02643)
T3 sequence: T1 sequence with E201A, A274N

GHRHR L62A (human) = molecular target: T4, GHRHR L62A (human) (UniProt Q02643)
T4 sequence: T1 sequence with L40A, A274N

GHRHR F85A (human) = molecular target: T5, GHRHR F85A (human) (UniProt Q02643)
T5 sequence: T1 sequence with F63A, A274N

Measured: binding

β-arrestin 1-Venus (from UniProt P49407 1-418)
binds: all assays above
